In series [1] the target is T1, Tt-RpoE1 (Thermoanaerobacter tengcongensis MB4T) (UniProt Q8RCT7).
T1 sequence (looked up): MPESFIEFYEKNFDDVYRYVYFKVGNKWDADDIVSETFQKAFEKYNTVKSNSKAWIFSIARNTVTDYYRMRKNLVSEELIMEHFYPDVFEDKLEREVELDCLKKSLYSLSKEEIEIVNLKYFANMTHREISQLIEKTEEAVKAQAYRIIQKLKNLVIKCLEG
In words: EMSA. The following applies: 50 mM Tris-HCl pH 8.0, 10 mM MgAc2, 30 mM NaCl, 1 mM DTT, 5% glycerol, 30 ug/ml BSA, 0.5 mM EDTA, 1 ug poly(dI-dC), 20 fmol probe in 20 ul, 25 C, 20 min, recombinant protein, residues 1-162, protein details: His (pET28a).

The target in series [2] is T2, Tt-RpoE1 D66A (Thermoanaerobacter tengcongensis MB4T) (UniProt Q8RCT7).
T2 sequence (looked up): T1 sequence (looked up) with D66A
In words: EMSA. Conditions: 5 uM protein, 50 mM Tris-HCl pH 8.0, 10 mM MgAc2, 30 mM NaCl, 1 mM DTT, 5% glycerol, 30 ug/ml BSA, 0.5 mM EDTA, 1 ug poly(dI-dC), 20 fmol probe in 20 ul, 25 C, 20 min, recombinant protein, residues 1-162, protein details: His (pET28a), label: 5'-32P top strand, letters put together from the description. (Mobility shift assays separate free from complexed probe on a gel.)

The mark [3] stands for this setting: 5 uM protein, label: 5'-32P top strand.
Setting [4] is: 5 uM protein, almost abolished, label: 5'-32P top strand, letters put together from the description.
[5] abbreviates: 5 uM protein, almost abolished, label: 5'-32P top strand.

Substitutions are numbered along the chain they refer to. The comparison behind a weaker result is the experiment's own reference, which may not be listed here. Protein sequences can lack the tags named with them. For part of these data: The exact form of at least one protein or probe is not confirmed. For part of these data: At least one verdict was read from the data and is not stated in words by the source.

As to “ACCTTTTGTGTAGATTTTCGTCTATAAAGGTG / GACGAAAATCTACACAAAAGGT [D-9/-10]”, in series [1] (5 uM protein, strong decrease, label: 5'-32P top strand), the binding result was “binds more weakly”.
Turning to “CACCTTTATAGACGAAAATCTACACAAAAGGTAACAATACC [ssBot]”, the binding result in series [1] (5 uM protein, much weaker band, label: 32P, single-stranded DNA) is reported as “binds more weakly”.
As for “GGTATTGTTACCTTTTGTGTAGATTTTCGTCTATAAAGGTG (double strand) [T+1/B+1]”, the binding result in series [1] (weak, only at 25 uM protein, label: 5'-32P top strand) is on record as “binds more weakly”.
“GGTATTGTTACCTTTTGTGTAGATTTTCGTCTATAAAGGTG / GAAAATCTACACAAAAGGTAACAATACC [T+1/B-13]”: in series [1] (setting [3]), the binding result is “binds more weakly”.
For the sequence “GGTATTGTTACCTTTTGTGTAGATTTTCGTCTATAAAGGTG [ssTop (T+1)]”, the binding result in series [1] (5 uM protein, label: 5'-32P, single-stranded DNA) is reported as “binds more weakly”.
Turning to “GTGGACCTTTTGTGTAGATTTTCGTCTATAAAGGTG / GACGAAAATCTACACAAAAGGTCCAC [D-5-M3 (-35TGTT-32 to GTGG)]”, the binding result in series [1] (setting [3]) is on record as “binds more weakly”.
The same measure, in the same setting: with “GTTTACCTTTTGTGTAGATTTTCGTCTATAAAGGTG / GACGAAAATCTACACAAAAGGTAAAC [D-5-M2 (-35TG-34 to GT)]” the entry was “binds more weakly”; with “TGGGACCTTTTGTGTAGATTTTCGTCTATAAAGGTG / GACGAAAATCTACACAAAAGGTCCCA [D-5-M1 (-33TT-32 to GG)]”, “binds more weakly”; with “TGGTACCTTTTGTGTAGATTTTCGTCTATAAAGGTG / GACGAAAATCTACACAAAAGGTACCA [D-5-3t (-33T to G)]”, “binds more weakly”.
“TGTGGCCTTTTGTGTAGATTTTCGTCTATAAAGGTG / GACGAAAATCTACACAAAAGGCCACA [D-5-M4 (-32TA-31 to GG)]”: the binding result in series [1] (5 uM protein, stronger decrease than other doubles, label: 5'-32P top strand) is reported as “binds more weakly”.
Consider “TGTTACCTTTTGTGTAGATTTTCGCCTATAAAGGTG / CGAAAATCTACACAAAAGGTAACA [D-5-B3T/-12 (-11T to C)]”, for which the binding result in series [1] (setting [4]) and in series [2] (defect not cured) was “binds more weakly” throughout.
Regarding “TGTTACCTTTTGTGTAGATTTTCGTCTATAAAGGTG / CGAAAATCTACACAAAAGGTAACA [D-5/-12]”, the binding result in series [2] (strongly decreased) is reported as “binds more weakly”.
Turning to “TGTTACCTTTTGTGTAGATTTTCGTTTATAAAGGTG / CGAAAATCTACACAAAAGGTAACA [D-5-b4c/-12 (-10C to T)]”, the binding result in series [1] (setting [4]) and in series [2] (defect not cured) was “binds more weakly” throughout.
As for “TGTTACCTTTTGTGTAGATTTTCTTCTATAAAGGTG / AGAAAATCTACACAAAAGGTAACA [D-5-B2G (-12G to T)]”, the binding result in series [1] (setting [5]) is “binds more weakly”.
With “TGTTACCTTTTGTGTAGATTTTTTTCTATAAAGGTG / AAAAAATCTACACAAAAGGTAACA [D-5-BM1 (-13CG-12 to TT)]”, the binding result in series [1] (setting [3]) is “binds more weakly”.
On the same count and under the same terms, with “TGTTACCTTTTGTGTAGATTTTTTTTTATAAAGGTG / AAAAAATCTACACAAAAGGTAACA [D-5-BM2 (-13C,-12G,-10C to T)]” the entry was “binds more weakly”.
“TGTTGCCTTTTGTGTAGATTTTCGTCTATAAAGGTG / GACGAAAATCTACACAAAAGGCAACA [D-5-5a (-31A to G)]”: the binding result in series [1] (setting [3]) is given as “binds more weakly”.
“TTTTACCTTTTGTGTAGATTTTCGTCTATAAAGGTG / GACGAAAATCTACACAAAAGGTAAAA [D-5-2G (-34G to T)]”: the binding result in series [1] (setting [3]) was “binds more weakly”.
On to “TTTTGTGTAGATTTTCGTCTATAAAGGT / GACGAAAATCTACACAAAA [D-12/-10]”, for which the binding result in series [1] (setting [5]) is recorded as “binds more weakly”.
